# No constants are given. Whether binding was seen depends on the method and setting. Binding seen in cells or lysates may run through a third protein. Some results given as binding are weak or reduced against the parent protein; the word gives no strength.
# Protein sequences, listed by entry. Tags and fused reporters are not part of them.
# UniProt O89090: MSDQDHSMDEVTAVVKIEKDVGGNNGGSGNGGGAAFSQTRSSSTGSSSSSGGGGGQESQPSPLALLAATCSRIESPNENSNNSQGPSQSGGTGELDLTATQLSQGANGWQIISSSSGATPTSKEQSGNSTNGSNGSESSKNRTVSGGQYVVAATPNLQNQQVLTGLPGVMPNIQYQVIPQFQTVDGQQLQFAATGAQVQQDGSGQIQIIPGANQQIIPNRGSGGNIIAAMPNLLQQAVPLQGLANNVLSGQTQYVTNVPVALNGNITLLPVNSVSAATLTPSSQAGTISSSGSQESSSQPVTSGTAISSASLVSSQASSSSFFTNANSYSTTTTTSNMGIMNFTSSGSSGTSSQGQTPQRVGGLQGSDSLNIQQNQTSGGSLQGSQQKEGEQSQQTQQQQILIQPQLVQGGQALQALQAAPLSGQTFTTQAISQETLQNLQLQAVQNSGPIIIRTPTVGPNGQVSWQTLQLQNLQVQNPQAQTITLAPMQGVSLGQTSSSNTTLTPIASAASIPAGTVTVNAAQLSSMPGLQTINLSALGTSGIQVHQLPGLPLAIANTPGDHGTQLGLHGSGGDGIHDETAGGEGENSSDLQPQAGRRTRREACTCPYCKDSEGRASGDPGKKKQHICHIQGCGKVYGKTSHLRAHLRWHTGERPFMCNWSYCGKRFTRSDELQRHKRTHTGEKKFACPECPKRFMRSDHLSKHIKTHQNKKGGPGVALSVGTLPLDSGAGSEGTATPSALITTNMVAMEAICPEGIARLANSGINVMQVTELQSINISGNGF
# B1: peroxisome proliferator-activated receptor γ coactivator 1α (protein, UniProt O70343 1-797)
# chain: MAWDMCSQDSVWSDIECAALVGEDQPLCPDLPELDLSELDVNDLDTDSFLGGLKWCSDQSEIISNQYNNEPANIFEKIDEENEANLLAVLTETLDSLPVDEDGLPSFDALTDGAVTTDNEASPSSMPDGTPPPQEAEEPSLLKKLLLAPANTQLSYNECSGLSTQNHAANHTHRIRTNPAIVKTENSWSNKAKSICQQQKPQRRPCSELLKYLTTNDDPPHTKPTENRNSSRDKCASKKKSHTQPQSQHAQAKPTTLSLPLTPESPNDPKGSPFENKTIERTLSVELSGTAGLTPPTTPPHKANQDNPFKASPKLKPSCKTVVPPPTKRARYSECSGTQGSHSTKKGPEQSELYAQLSKSSGLSRGHEERKTKRPSLRLFGDHDYCQSLNSKTDILINISQELQDSRQLDFKDASCDWQGHICSSTDSGQCYLRETLEASKQVSPCSTRKQLQDQEIRAELNKHFGHPCQAVFDDKSDKTSELRDGDFSNEQFSKLPVFINSGLAMDGLFDDSEDESDKLSYPWDGTQPYSLFDVSPSCSSFNSPCRDSVSPPKSLFSQRPQRMRSRSRSFSRHRSCSRSPYSRSRSRSPGSRSSSRSCYYYESSHYRHRTHRNSPLYVRSRSRSPYSRRPRYDSYEAYEHERLKRDEYRKEHEKRESERAKQRERQKQKAIEERRVIYVGKIRPDTTRTELRDRFEVFGEIEECTVNLRDDGDSYGFITYRYTCDAFAALENGYTLRRSNETDFELYFCGRKQFFKSNYADLDTNSDDFDPASTKSKYDSLDFDSLLKEAQRSLRR
# Molecular target: SP1 (mouse (endogenous in mouse hypothalamus)) (UniProt O89090)
# Assay: co-IP; endogenous proteins from mouse hypothalamus lysate; IP buffer 50 mM Tris, 150 mM NaCl, 0.5% NP40, pH 7.5; antibody (anti-PGC-1α or anti-SP1) on Protein A/G beads, overnight at 4 °C; immunoblot
binder,measurement,value
B1,binding,binds

# Source: PMC10885970
